Results: paper PMC12097036
Results are given in words; binding and its absence hold for the method and conditions named. For some assays here: In cells and extracts the contact can be indirect. Some results given as binding are weak or reduced against the parent protein; the word gives no strength. Sequences can lack the tags named with a protein.

T1: Flag-RAB3B (human) (UniProt P20337)
T1 sequence: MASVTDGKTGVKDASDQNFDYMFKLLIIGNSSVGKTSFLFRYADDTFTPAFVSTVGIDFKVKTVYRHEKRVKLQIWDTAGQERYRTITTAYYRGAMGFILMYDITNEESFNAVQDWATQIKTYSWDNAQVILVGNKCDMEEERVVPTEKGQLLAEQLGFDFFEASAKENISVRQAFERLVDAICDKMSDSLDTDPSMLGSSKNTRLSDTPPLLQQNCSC


What was measured:
Flag-RAB3B (human) = molecular target: T1, Flag-RAB3B (human); experiment: co-IP; CH22 cell lysates (150 mM NaCl, 0.5% NP-40, 1 mM EDTA, 10% glycerophosphate, 50 mM Tris-Cl pH 7.4); M2 beads for Flag proteins (4 °C, 120 min) or antibody with protein A/G agarose for endogenous proteins (4 °C, overnight); immunoblot; cells with or without RAB3B overexpression, siRAB3B or RAB3B knockdown
[1] = molecular target: DUSP12 protein with a GST-tag (UniProt Q9UNI6); experiment: pull-down; GST pull-down: GST-tagged DUSP12 on GST-tag magnetic beads (4 °C, 60 min), prey added at 4 °C overnight, with MBP-RAB3B or its truncated forms; immunoblot; both purified

Row | Molecule | binding (Flag-RAB3B (human)) | binding [1]
1 | DUSP12 (from UniProt Q9UNI6 1-340) (enzyme) | binds | –
2 | RAB3B protein with MBP-tag (protein, UniProt P20337 1-219) MASVTDGKTGVKDASDQNFDYMFKLLIIGNSSVGKTSFLFRYADDTFTPAFVSTVGIDFKVKTVYRHEKRVKLQIWDTAGQERYRTITTAYYRGAMGFILMYDITNEESFNAVQDWATQIKTYSWDNAQVILVGNKCDMEEERVVPTEKGQLLAEQLGFDFFEASAKENISVRQAFERLVDAICDKMSDSLDTDPSMLGSSKNTRLSDTPPLLQQNCSC | – | binds
